Measurements reported in PubChem BioAssay AID1224830 (NIAID, 2016)
Screen: 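Host factors that control LPS-induced TNF expression in human macrophages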 (primary screen). Cell system: human THP-1 monocytic leukaemia cells, TNF dual-luciferase reporter clone, PMA-differentiated to macrophage-like cells. Reagents: siRNA pool against human genes, 50 nM. Duration: LPS for 4 h, given about 3 days after siRNA transfection. Conditions: bacterial LPS (TLR4 ligand), 10 ng/ml. Measurement: 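TNF firefly reporter luminescence divided by renilla, normalised to the plate median, then turned into a robust z-score for each replicate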. Reading the numbers: TNF reporter robust z-score: higher = stronger TNF reporter response to LPS. Rule for the call: 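a well is active when its z-score exceeds 2.8 or falls below -1.5; control wells carry no call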.
Shown is an unselected part of about 18,000 reagents tested. Of all reagents, about 2,900 (16%) are marked active. 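Calls are made per well; low scores hint the gene aids the LPS response, high scores that it dampens it.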 Repeated entries: four replicate wells of each siRNA pool.

The first 5 entries, ahead of the listing:
target | TNF reporter robust z-score | call
RGS17 | 0.23 | inactive
RGS17 | 0.79 | inactive
RGS17 | 0.88 | inactive
RGS17 | 0.91 | inactive
SLX1A | 0.8 | inactive

Main list, from the start:
target | TNF reporter robust z-score | call
RGS17 | 0.23 | inactive
RGS17 | 0.79 | inactive
RGS17 | 0.88 | inactive
RGS17 | 0.91 | inactive
SLX1A | 0.8 | inactive
SLX1A | 1.75 | inactive
SLX1A | -1 | inactive
SLX1A | 0.22 | inactive
AQP11 | 0.29 | inactive
AQP11 | -0.52 | inactive
AQP11 | 0.07 | inactive
ZNF577 | 1.25 | inactive
ZNF577 | 0.27 | inactive
ZNF577 | 0.09 | inactive
ZNF577 | -0.06 | inactive
IL36RN | -0.63 | inactive
IL36RN | -0.69 | inactive
IL36RN | -0.44 | inactive
IL36RN | -0.09 | inactive
RNF144B | -0.49 | inactive
RNF144B | -0.21 | inactive
RNF144B | -0.29 | inactive
RNF144B | 0.41 | inactive
SCRN2 | 0.29 | inactive
SCRN2 | -0.17 | inactive
SCRN2 | 0.08 | inactive
SCRN2 | 1.94 | inactive
GNAT2 | -1.45 | inactive
GNAT2 | -1.41 | inactive
GNAT2 | -1.63 | active
GNAT2 | -2 | active
ABCC8 | -0.22 | inactive
ABCC8 | -0.45 | inactive
ABCC8 | -0.35 | inactive
ABCC8 | 0 | inactive
NFIL3 | -0.78 | inactive
NFIL3 | -1.03 | inactive
NFIL3 | -0.88 | inactive
NFIL3 | -0.27 | inactive
UTP20 | -1.7 | active
UTP20 | -1.02 | inactive
UTP20 | -0.22 | inactive
UTP20 | 0.19 | inactive
ZFX | 2.5 | inactive
ZFX | 6.89 | active
ZFX | 1.77 | inactive
ZFX | 1.26 | inactive
PPP1R12C | -1.29 | inactive
PPP1R12C | -0.74 | inactive
PPP1R12C | -0.7 | inactive
PPP1R12C | -0.5 | inactive
OR2AG1 | 0.2 | inactive
OR2AG1 | 0.55 | inactive
OR2AG1 | -0.06 | inactive
OR2AG1 | 0.46 | inactive
CATSPERD | -0.12 | inactive
CATSPERD | 0.15 | inactive
CATSPERD | -0.24 | inactive
CATSPERD | -0.13 | inactive
WTIP | 1.36 | inactive
WTIP | 0.89 | inactive
WTIP | 1.28 | inactive
WTIP | 0.33 | inactive
DEFB108B | 0.91 | inactive
DEFB108B | -0.54 | inactive
DEFB108B | -0.24 | inactive
DEFB108B | -0.02 | inactive
DDX12P | 2.61 | inactive
DDX12P | -0.44 | inactive
DDX12P | -0.89 | inactive
DDX12P | -0.23 | inactive
PCMTD2 | -1.5 | inactive
PCMTD2 | -1.42 | inactive
PCMTD2 | -1.65 | active
PCMTD2 | -0.77 | inactive
